Measured values from PubChem BioAssay AID588765 (NMMLSC, 2011).
The other results are listed elsewhere or left out.

assay: fluorescent artefacts in FAP flow readout – cell-based, FAP fluorogen, flow cytometry, cherry pick 1, artefact control for beta2AR agonist internalization project, confirmation (AID 588765); details: Am2.2 cells, fluorescence counterscreen, measured here: FL8 channel fluorescence, at 10 µM, stronger effect = lower value;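 note: low percent response here flags compound autofluorescence meaning a false positive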

Structure (SMILES)	percent response FL8 [%]
CN(C)C(=O)c1cc([N+](=O)[O-])cc2c1-c1c(cc([N+](=O)[O-])cc1[N+](=O)[O-])C2=O	86.2
